Laboratory results taken from publication PMC6313503.

T1: 3× FLAG-IKKβ (UniProt O14920)
T1 sequence: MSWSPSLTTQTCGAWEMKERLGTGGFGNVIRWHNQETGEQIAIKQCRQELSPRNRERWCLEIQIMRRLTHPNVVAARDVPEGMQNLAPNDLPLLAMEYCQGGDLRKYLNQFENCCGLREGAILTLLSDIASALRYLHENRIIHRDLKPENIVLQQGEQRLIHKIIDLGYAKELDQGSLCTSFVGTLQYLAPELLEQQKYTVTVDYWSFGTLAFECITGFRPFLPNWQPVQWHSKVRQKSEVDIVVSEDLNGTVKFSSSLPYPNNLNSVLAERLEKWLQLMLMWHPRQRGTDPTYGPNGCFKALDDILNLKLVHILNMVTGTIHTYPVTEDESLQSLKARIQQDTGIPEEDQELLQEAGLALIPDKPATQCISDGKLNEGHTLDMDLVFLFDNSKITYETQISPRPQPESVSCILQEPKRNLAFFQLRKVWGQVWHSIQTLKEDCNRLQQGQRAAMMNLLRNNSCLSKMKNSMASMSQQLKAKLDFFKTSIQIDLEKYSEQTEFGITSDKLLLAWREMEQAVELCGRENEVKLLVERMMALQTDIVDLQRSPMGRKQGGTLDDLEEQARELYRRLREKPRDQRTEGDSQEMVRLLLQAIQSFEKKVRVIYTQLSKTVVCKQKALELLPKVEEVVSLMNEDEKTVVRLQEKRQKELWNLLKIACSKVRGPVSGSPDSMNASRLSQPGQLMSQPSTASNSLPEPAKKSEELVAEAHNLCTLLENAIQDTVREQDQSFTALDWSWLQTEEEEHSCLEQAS

B1: His-IKKβ (enzyme, UniProt O14920 1-756)
chain: T1 sequence

Key:
3× FLAG-IKKβ = biological target: T1, 3× FLAG-IKKβ; assay: co-IP
[1] = biological target: GST-EHEC NleH1 (enterohemorrhagic Escherichia coli (EHEC)); assay: pull-down; both purified
[2] = biological target: GST-EHEC NleH2 (enterohemorrhagic Escherichia coli (EHEC)); assay: pull-down; both purified

Row | Molecule | binding (3× FLAG-IKKβ) | binding [1] | binding [2]
1 | NleB1-HA | no binding | – | –
2 | NleH1-HA | binds | – | –
3 | NleH2-HA | binds | – | –
4 | B1 | – | binds | binds

No constants are given. Whether binding was seen depends on the method and setting. Binding can be weak; no strength is given. Tags and fused reporters may be left off the sequences shown. For some assays here: Binding seen in cells or lysates may run through a third protein.
